The supplement of paper PMC3334620
The full ranking holds about 33,000 sequences; the median of “E-score (-0.5 to 0.5)” is about -0.0059, and the highest 2% start at about 0.26. The list shows a part of the results.

Target: T1, Cin5 (UniProt P40917)
T1 sequence: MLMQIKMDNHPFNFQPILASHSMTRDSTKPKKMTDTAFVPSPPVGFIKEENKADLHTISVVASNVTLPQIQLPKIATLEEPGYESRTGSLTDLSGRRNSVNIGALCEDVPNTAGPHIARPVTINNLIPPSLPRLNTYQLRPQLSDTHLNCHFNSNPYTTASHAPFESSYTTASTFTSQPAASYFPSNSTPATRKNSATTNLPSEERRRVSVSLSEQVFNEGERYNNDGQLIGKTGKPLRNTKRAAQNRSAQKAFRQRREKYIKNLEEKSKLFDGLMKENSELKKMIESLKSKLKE
Experiment: PBM E-score (8-mer binding enrichment) (E-score (-0.5 to 0.5)); higher = stronger / more preferred TF binding
Details: protein concentration: 100 nM; construct: GST-full length
Method in brief: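 Yeast transcription factors carrying a GST tag, as full-length proteins or DNA-binding domains, were produced by PURExpress in vitro transcription/translation. About 100-200 nM protein was applied to universal all-10-mer Agilent arrays, double-stranded by primer extension on fresh or once-stripped slides. Bound protein was detected with fluorescent anti-GST, and scans were normalised with masliner. The Universal PBM Analysis Suite gave each ungapped eight-base word, pooled with its reverse complement, an E-score, a modified Wilcoxon-Mann-Whitney statistic.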

Row | Sequence | PBM E-score
1 | AATACCGC | -0.051
2 | ACCGTATC | -0.0415
3 | CATATAAG | 0.0464
4 | CGATTACC | 0.143
5 | AGGCTAAG | -0.0874
6 | TCAGAGAA | -0.034
7 | AGACAAAT | 0.169
8 | CTTCGCTA | -0.0307
9 | AGTTCGAA | 0.0778
10 | CTTCGGTA | -0.00617
11 | GCCTCTTA | -0.0406
12 | CTCTCAAC | -0.125
13 | GTAACAAA | 0.15
14 | CACTGACC | -0.0454
15 | AACACAGG | -0.0744
16 | AGAGGATG | 0.129
17 | ACCTCACG | -0.0502
18 | GGTATCGA | 0.215
19 | CTAATGCC | -0.0696
20 | CGTGAACC | -0.081
21 | ACAGTAGG | -0.00703
22 | AGCGCACG | -0.102
23 | ATTCAGTG | 0.211
24 | AGACTATC | -0.154
25 | AGGCGTGC | 0.039

Shown as a markdown table: entries from further up

| Row | Sequence | PBM E-score |
| --- | --- | --- |
| 2 | ACCGTATC | -0.0415 |
| 5 | AGGCTAAG | -0.0874 |
| 7 | AGACAAAT | 0.169 |
| 8 | CTTCGCTA | -0.0307 |
| 16 | AGAGGATG | 0.129 |
| 18 | GGTATCGA | 0.215 |
| 19 | CTAATGCC | -0.0696 |

Additional entries follow.

Row | Sequence | PBM E-score
26 | TAGGGAGA | 0.0366
27 | ATTAGTTA | 0.315
28 | CAGCCGAC | -0.257
29 | TCCTTAGA | -0.305
30 | AGACCTGA | -0.0286
31 | CACGTCCA | -0.203
32 | ATCGCGCA | -0.074
33 | GAACACAA | 0.00199
34 | GCCTCTCC | -0.214
35 | AATATTAG | 0.215
36 | GTCATCAC | 0.108
37 | ATGCTGAA | 0.0327
38 | AAGCCATC | 0.087
39 | ATCCCCTG | -0.0927
40 | ACTACAGA | 0.162
41 | ACTGCTTG | -0.183
42 | TGATATAA | 0.207
43 | GAGGGAGC | -0.24
44 | CCGGCGAG | -0.111
45 | AGGTTTAA | 0.0387
46 | AAAACGAG | -0.125
47 | CGTCAGTA | -0.0868
48 | AGATACAG | 0.0747
49 | GATCTCGA | -0.0371
50 | ACTGGCAG | -0.148

Row | Sequence | PBM E-score
51 | AGGCCTTC | -0.0672
52 | CGACCTTC | 0.0416
53 | ACCTGAGT | 0.0401
54 | ATGGGTCG | 0.0303
55 | GACATGCA | -0.0618
56 | GTCGCATA | 0.139
57 | CGACAGCA | -0.0236
58 | GCATGTGA | -0.0288
59 | AATTCCAA | 0.0946
60 | CGGCGTAA | 0.051
61 | CTCATACA | 0.0491
62 | CTTCCAGA | -0.0618
63 | CCTCACTA | 0.00837
64 | AAACAGAA | 0.111
65 | ATCGGCCC | -0.0144
66 | TATTAGGA | -0.0106
67 | CCTTTTGC | -0.0665
68 | ACTTTAAG | 0.154
69 | ACGCCTGC | -0.234
70 | GCATCCGC | 0.0057
71 | AGGATCCC | 0.0569
72 | GCTCCTAA | -0.186
73 | ACACGCAG | -0.134
74 | GGGATAAA | 0.156
75 | GCAACTGA | 0.0933

Row | Sequence | PBM E-score
76 | GTCGGAAC | 0.0629
77 | GCTCAGAA | -0.0354
78 | GGTCAAAC | -0.0543
79 | CCCTCGCA | -0.0467
80 | GGAGATAA | 0.0022
81 | ATAGTGCC | -0.0727
82 | CCCTTGTC | -0.128
83 | CCGCACGC | -0.107
84 | ACCTTACA | -0.0412
85 | TAAGGCTA | -0.103
86 | AAGAGATT | 0.122
87 | GCGACGAA | -0.00723
88 | ACGTAAAA | 0.166
89 | CCTTTAAA | -0.236
90 | AAGCAATG | 0.197
91 | GGTTACTA | 0.119
92 | AACACATC | 0.00921
93 | ATCCGACG | 0.0285
94 | AGAGCGCT | -0.0784
95 | AACTGACG | -0.124
96 | CCGTTCGC | -0.127
97 | CACATAAC | -0.00529
98 | AGTTGAAG | -0.00489
99 | CCGCAGCC | -0.2
100 | AAGCAACC | 0.138

Row | Sequence | PBM E-score
101 | ACACCCTA | 0.00876
102 | ATCGGAAT | 0.151
103 | ACATAAGG | 0.194
104 | CCTCTGGA | -0.0661
105 | GCCTGTCA | -0.0974
106 | AGGACGAT | -0.0283
107 | GGACGGTA | -0.135
108 | CACGCGAC | -0.0294
109 | AGGAACCG | -0.111
110 | CGCGCATA | 0.021
111 | TAACCTTA | -0.021
112 | GGTGGTGA | 0.00308
113 | CGTGTTCA | 0.0386
114 | AATATACA | 0.23
115 | ATTTAAAC | 0.217
116 | AGTCACTG | -0.142
117 | CTCCTTAA | -0.192
118 | GGCTGGAC | -0.33
119 | ACGAACTC | 0.00437
120 | ATATGTCG | 0.0154
121 | ACAGTGCT | -0.0105
122 | ATCTCAAT | 0.186
123 | CAGGACGG | -0.232
124 | ACGCTAAT | 0.0699
125 | CTGTATTC | 0.131

Row | Sequence | PBM E-score
126 | GCTCAAGA | -0.244
127 | GGTGTGTA | -0.0653
128 | CCGAATCC | 0.121
129 | CCGATGAG | -0.0359
130 | CCATTGCC | 0.044
131 | CGCTCGCC | -0.0405
132 | AGTCTCCA | -0.156
133 | CTCCGCGA | 0.0551
134 | CTCTTGCA | -0.088
135 | TAATGGCA | 0.128
136 | ATCTCACC | 0.0981
137 | ACCTTGAC | 0.0353
138 | ACATCCTC | -0.0642
139 | ACCATGAT | 0.0535
140 | CTAGTCAA | 0.0271
141 | CGGCCAAG | -0.069
142 | GGGTAGAC | -0.243
143 | TTGGCAAA | 0.0581
144 | AAACGTGG | -0.095
145 | AGAGAAAT | 0.0621
146 | GAGGTGCA | -0.0183
147 | AAAGCGCC | -0.066
148 | CGTTCCTA | -0.167
149 | AAATGAAT | 0.0636
150 | AGATAATA | 0.237

Row | Sequence | PBM E-score
151 | ACTGGATC | 0.0505
152 | CGCCACTC | -0.00075
153 | CAGATCAG | 0.115
154 | ATACTGCA | 0.156
155 | CGACTATA | 0.107
156 | CTATCCAC | -0.00165
157 | ACACACGA | 0.135
158 | AGCCCTAA | -0.117
159 | AGTCTCGG | -0.221
160 | ATGGCATA | 0.204
161 | AGCCCATG | 0.0563
162 | AGGATAGA | 0.0885
163 | CCTAATCA | 0.221
164 | AGATCCCC | -0.00692
165 | CTTATATC | 0.232
166 | CTCTTAAA | 0.0655
167 | ATTACTTC | 0.126
168 | CCTTTGGA | -0.277
169 | ATGTCCCC | -0.0546
170 | CACTCACC | -0.111
171 | AAGGCTCT | -0.175
172 | AGTCCCCC | -0.394

Pulled one by one from above:
Row | Sequence | PBM E-score
108 | CACGCGAC | -0.0294
52 | CGACCTTC | 0.0416
